# Measurements taken from PMC12040169 (PLOS Biology, 2025).
# The list shows a part of the results.
# Test system: T1, CTL2-GFP (C. trachomatis L2/434/Bu, GFP-expressing)
# T1 construct: L2/434/Bu, GFP-expressing
# Set-up: species or system HeLa; Intracellular C. trachomatis growth in HeLa cells, bulk GFP fluorescence relative to DMSO
# Settings: bulk GFP, single well; 28.5 h, 10 µM; inhibitor
row,Compound,% of control remaining
1,c1ccc2c(c1)CCN(Cc1ccc3ccccc3c1)C2 [CBK126397],77.0455%
2,CCCN1CCC(NC(=O)Cn2nnc3ccccc3c2=O)CC1 [CBK305581],123.179%
3,CN(Cc1cccn1C)C(=O)c1cc(-c2cnn(C)c2)[nH]n1 [CBK283325],122.449%
4,Cc1ccc(C#N)c(NCc2ccccc2CN2CCCC2CO)n1 (stereo not shown) [CBK304076],121.578%
5,COc1c(C)cnc(CNC2CCCN(Cc3noc(C)n3)C2)c1C (stereo not shown) [CBK305350],151.515%
6,O=S(=O)(Nc1cccc(OC(F)(F)F)c1)c1ccc(N2CCNCC2)c2ccccc12 [CBK003935C],61.8783%
7,COCC(=O)N1CCC2(CC1)CC(=O)c1cc(Cl)cc(Cl)c1O2 [CBK156440],107.995%
8,Cc1cc(-c2ccc(/N=C/c3cccc(O)c3O)c(C)c2)ccc1/N=C/c1cccc(O)c1O [CBK261613],96.7658%
9,C#CCNC(=O)[C@H]1O[C@H](CCN2CCCCC2)CC[C@@H]1O [CBK288728],136.403%
10,CCCN1CC(NS(=O)(=O)c2cc(OC)c(Cl)cc2OC)CC1=O (stereo not shown) [CBK307581],113.077%
11,Cc1nn(CC(=O)N2CCCC(C)C2)c(=O)c2cc3sccc3n12 (stereo not shown) [CBK284046],140.607%
12,Cc1ccnc2c1C(=O)C1(CC2)CCN(S(=O)(=O)c2c(C)noc2C)CC1 [CBK059557T],118.466%
13,COc1cc(NS(=O)(=O)c2ccc(NC(=O)c3ccc(C)o3)cc2)nc(OC)n1 [CBK268182],88.8328%
14,CC1=CC(=O)OC1(O)c1ccc(Br)cc1 (stereo not shown) [CBK022687],120.334%
15,CC(Cc1nc(C2CC2)cs1)n1cc(Cl)cn1 (stereo not shown) [CBK304707],123.937%
16,O=C(CSc1ccccc1)Nc1cccc(Oc2ccc3c(c2)C(=O)NC3=O)c1 [CBK266500],118.346%
17,CC(C)[C@H]1SC(NC[C@H](C)c2ccccc2)=NC1=O [CBK074034],114.504%
18,CN(C)CCN(C)c1cccc(-c2ccc(CCC(=O)O)cc2)n1 [CBK036983],174.382%
19,C[C@@H]1CNCCN1c1nccnc1OCCOc1cccnc1OCCN [CBK040757T],100%
20,O=c1c2c(nc(NCCO)n1-c1ccccc1)-c1ccccc1CC21CCCCC1 [CBK262589],99.8634%
21,CN(C)CCNC(=O)c1ccc(-c2cnc(OCC3CCN(C(=O)OC(C)(C)C)CC3)nc2)cc1 [CBK167544],119.291%
22,O=c1[nH]nc(-c2cccs2)n1-c1cccnc1 [CBK283854],119.232%
23,CC(C)n1cc(C(=O)N2CCCC2c2nc3ccccc3[nH]2)cn1 (stereo not shown) [CBK284667],89.4223%
24,CN(C)CCN1C(=O)C(O)=C(C(=O)c2cccs2)C1c1ccc([N+](=O)[O-])cc1 (stereo not shown) [CBK264584],109.957%
25,COc1cc(/C=C2\SC(=N)NC2=O)ccc1OCC(=O)O [CBK262675],114.268%
26,CCN(CC(=O)NCc1ccc(F)cc1)S(=O)(=O)c1ccc(Cl)s1 [CBK305837],112.054%
27,NS(=O)(=O)c1ccc(NC(=O)CCSc2ccc(Cl)cc2)cc1 [CBK269322],149.045%

row,Compound,% of control remaining
1,Cc1c(CN2CCC(N(C)CCN(C)C)CC2)oc2ccccc12 [CBK282038],135.931%
2,Cc1noc2nc(-c3ccco3)cc(C(=O)NCc3nc4ccccc4[nH]3)c12 [CBK295608],59.5648%
3,CCOC(=O)N1CCC(NS(=O)(=O)c2cc(Cl)sc2Cl)CC1 [CBK045462],154.895%
4,O=C(COc1ccc(S(=O)(=O)N2CCCCC2)cc1)NCc1ccccn1 [CBK268517],134.405%
5,O=C(c1ccco1)N1CCN(c2ccc(-c3ccc(F)c(Cl)c3)cn2)CC1 [CBK037683],105.159%
6,Oc1ccccc1Nc1nc(NC2CCCC2)c2ccccc2n1 [CBK268402C],47.1199%
7,CC(C)c1ccc(S(=O)(=O)NCc2csc3ccccc23)cc1 [CBK044662],96.6367%
8,CN(C)CCN1C(=O)C2C3c4ccccc4C([N+](=O)[O-])(c4ccccc43)C2C1=O (stereo not shown) [CBK269286],127.22%
9,C=CCn1nnc(NC(=O)COc2ccccc2)n1 [CBK288131],125.185%
10,CC(=O)Nc1nc(-c2cccs2)c(-c2cc(C)no2)s1 [CBK284493],131.137%
11,CC(C)c1cc2c(s1)NC(c1ccccc1)NC2=O (stereo not shown) [CBK288209],118.403%
12,COc1ccc(-c2c(C(F)(F)F)oc3c(CN4CC(C)OC(C)C4)c(O)ccc3c2=O)cc1OC (stereo not shown) [CBK217829],126.153%
13,COCCCn1c(=O)[nH]c2ncc(-c3cccnc3)nc21 [CBK064929],151.29%
14,Cn1ccnc1CN1C[C@@H]2CN(C(=O)C3CCCC3)C[C@]2(C(=O)O)C1 [CBK307201],146.707%
15,CCOC(=O)N1CCN(S(=O)(=O)c2ccc3[nH]c(=O)oc3c2)CC1 [CBK304679],98.2299%
16,CCc1nn(CC(=O)NC(C)(C)C)c(=O)c2cc3sccc3n12 [CBK284056],117.524%
17,c1csc(C2CN(c3nccn4cnnc34)CCO2)c1 (stereo not shown) [CBK306380],109.607%
18,O=C(Nc1nc2ccccc2[nH]1)C1c2ccccc2Oc2ccccc21 [CBK265454],116.311%
19,CC(C)C(NC(=O)c1ccc(CS(C)(=O)=O)cc1)c1ccc(C(C)(C)C)cc1 (stereo not shown) [CBK296705],131.586%
20,Cc1cccc(C2(O)CCN(C(=O)c3cc(C(C)C)nn3C)CC2)c1 [CBK282163],129.35%
21,OCc1ccccc1-c1cc(N2CCN(Cc3cccnc3)CC2)n2nccc2n1 [CBK037105],223.454%
22,COc1cc(-c2cncc(N(CCO)CCO)n2)cc(OC)c1OC [CBK065544],96.4654%
23,CCCCOC(=O)c1ccc(NC(=O)NCCc2cccs2)cc1 [CBK043381],80.6454%
24,CCc1nnc(NS(C)(=O)=O)s1 [CBK062197],84.8107%
25,O=C(Nc1ccc(N2CCN(Cc3ccccc3F)CC2)cc1)c1cccnc1 [CBK267250],175.985%
26,Cc1cc(CNC(=O)C(C)Cn2cccn2)on1 (stereo not shown) [CBK281486],97.6298%
27,O=C(O)c1cc(NC(=O)c2ccco2)cc(C(=O)O)c1 [CBK263360],119.04%

# An excerpt of these results, with bars between the fields:
row | Compound | % of control remaining
25 | COc1cc(/C=C2\SC(=N)NC2=O)ccc1OCC(=O)O [CBK262675] | 114.268%
26 | CCN(CC(=O)NCc1ccc(F)cc1)S(=O)(=O)c1ccc(Cl)s1 [CBK305837] | 112.054%
27 | NS(=O)(=O)c1ccc(NC(=O)CCSc2ccc(Cl)cc2)cc1 [CBK269322] | 149.045%

# (further entries)

row,Compound,% of control remaining
1,CCCC(=O)N1CCC(c2cc3n(n2)[C@@H](C(F)(F)F)C[C@@H](C)N3)C1 (stereo partly shown) [CBK282237],111.833%
2,O=C(O)CCSCC(=O)c1ccc(OC(F)F)cc1 [CBK286991],133.633%
3,Nc1ncnc(N(c2ccccc2)c2ccccc2)n1 [CBK288139],132.798%
4,Nc1ncc(-c2ccc(Cl)cc2)nc1-c1ccc(CCC(=O)O)cc1 [CBK064063],159.023%
5,COc1cccc(CN2CCCC(NC(=O)NCc3cccs3)C2)c1 (stereo not shown) [CBK307357],135.491%
6,Cn1c(=O)c2c(nc(CN3CCN(C(=O)c4ccco4)CC3)n2CCc2ccccc2)n(C)c1=O [CBK269278],149.629%
7,CCNC(=O)Nc1ccc(-c2ccc3c(c2)OCCCO3)c2ccccc12 [CBK083726],114.206%
8,COc1ccc(CCN(Cc2cccnc2)CC(O)COc2cccc3c2CCCC3)cc1 (stereo not shown) [CBK024545T],81.9367%
9,COc1cc(C(=O)N2CCC3(CC2)CC(=O)c2cc(-c4ccc(N(C)C)cc4)ccc2O3)cc(OC)c1C [CBK170663],133.31%
10,CC(Oc1ccc2c(c1)OCO2)C(=O)NNC(=O)Nc1cccc(C(F)(F)F)c1 (stereo not shown) [CBK266922],151.709%
11,CCn1nc(C)c(C(C)NC(=O)c2ccnn2C(F)F)c1C (stereo not shown) [CBK281535],123.498%
12,O=C(COc1ccc(S(=O)(=O)N2CCCC2)cc1Cl)NCC1CCCO1 (stereo not shown) [CBK268243],114.521%
13,CC1CNCCN1C(=O)c1ccnc(N2CCN(C)CC2)c1 (stereo not shown) [CBK304122],122.593%
14,CCOC(=O)C(NCCc1ccc(OC)c(OC)c1)(NC(=O)c1ccco1)C(F)(F)F (stereo not shown) [CBK013715],95.9475%
15,O=C(O)c1ccccc1-c1ccc(/C=C2\S/C(=N\c3ccccc3)N(c3ccccc3)C2=O)o1 [CBK262566],103.035%
16,COc1ccc(S(=O)(=O)NCCNC(=O)c2cc(Br)cnc2N(C)S(C)(=O)=O)cc1 [CBK076477],103.115%
17,CN(C)C(CNc1nccnc1-c1ccccc1F)c1cccnc1 (stereo not shown) [CBK037290],90.2121%
18,Nc1nnc(CCS(=O)(=O)c2ccc(Br)cc2)s1 [CBK026286],87.6338%
19,CC(CNC1CCCC1)C(O)(c1ccccc1)c1ccccc1 (stereo not shown) [CBK012237C],140.844%
20,CC(C)Nc1cncc(OCCCN(C)C)n1 [CBK115600],114.69%
21,O=c1[nH]c(=O)n([C@H]2C[C@@H](O)[C@@H](CO)O2)cc1CCO [CBK201239],122.159%
22,COC(=O)COc1ccc(S(=O)(=O)N2CCC(C(N)=O)CC2)cc1 [CBK265993],170.504%
23,CCCc1[nH]nc(O)c1Cc1ccccc1C(F)(F)F [CBK075037],116.577%
24,CC(C)[C@@H](CO)Nc1cncc(-c2ccc3ccccc3c2)n1 [CBK065546],158.142%
25,O=c1n(C(c2ccccc2)c2ccccc2)ccn1S(=O)(=O)c1cccc(Cl)c1 [CBK106615],103.115%
